According to paper PMC8008175 (The Journal of Biological Chemistry, 2021):
These are yes or no findings as the source states them, for the method shown. Tags and fused reporters may be left off the sequences shown.

T1: full-length Rpn1 (Saccharomyces cerevisiae), P38764
T1 chain: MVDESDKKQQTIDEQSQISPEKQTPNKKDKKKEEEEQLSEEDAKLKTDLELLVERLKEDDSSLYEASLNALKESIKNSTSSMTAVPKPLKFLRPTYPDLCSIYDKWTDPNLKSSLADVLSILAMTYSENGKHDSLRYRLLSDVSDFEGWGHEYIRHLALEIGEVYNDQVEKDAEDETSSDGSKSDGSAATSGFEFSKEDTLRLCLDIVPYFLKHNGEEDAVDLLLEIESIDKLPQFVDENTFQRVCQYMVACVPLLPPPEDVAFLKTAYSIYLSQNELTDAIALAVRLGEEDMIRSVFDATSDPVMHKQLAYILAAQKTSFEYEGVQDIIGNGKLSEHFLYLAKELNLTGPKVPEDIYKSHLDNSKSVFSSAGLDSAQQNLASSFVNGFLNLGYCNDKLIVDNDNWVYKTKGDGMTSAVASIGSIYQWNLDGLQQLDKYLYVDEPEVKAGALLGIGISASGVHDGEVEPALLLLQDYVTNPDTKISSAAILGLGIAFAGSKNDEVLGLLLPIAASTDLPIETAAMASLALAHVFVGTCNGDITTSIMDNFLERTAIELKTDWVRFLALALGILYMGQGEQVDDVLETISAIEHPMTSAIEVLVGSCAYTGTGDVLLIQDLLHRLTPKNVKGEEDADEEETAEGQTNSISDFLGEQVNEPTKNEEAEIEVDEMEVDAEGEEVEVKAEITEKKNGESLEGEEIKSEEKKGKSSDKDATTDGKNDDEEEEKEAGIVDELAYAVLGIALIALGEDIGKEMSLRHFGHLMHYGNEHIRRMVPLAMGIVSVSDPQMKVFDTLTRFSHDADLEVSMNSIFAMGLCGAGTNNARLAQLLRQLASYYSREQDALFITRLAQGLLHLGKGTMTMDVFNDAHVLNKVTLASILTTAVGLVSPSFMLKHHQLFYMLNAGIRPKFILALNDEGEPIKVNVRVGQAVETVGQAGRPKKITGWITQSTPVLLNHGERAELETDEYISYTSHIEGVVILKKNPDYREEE

T2: Rpn1^356-905 (Saccharomyces cerevisiae, UniProt P38764 356-905)
T2 construct: also called PC repeat region construct; source: E. coli, purified
T2 sequence (looked up): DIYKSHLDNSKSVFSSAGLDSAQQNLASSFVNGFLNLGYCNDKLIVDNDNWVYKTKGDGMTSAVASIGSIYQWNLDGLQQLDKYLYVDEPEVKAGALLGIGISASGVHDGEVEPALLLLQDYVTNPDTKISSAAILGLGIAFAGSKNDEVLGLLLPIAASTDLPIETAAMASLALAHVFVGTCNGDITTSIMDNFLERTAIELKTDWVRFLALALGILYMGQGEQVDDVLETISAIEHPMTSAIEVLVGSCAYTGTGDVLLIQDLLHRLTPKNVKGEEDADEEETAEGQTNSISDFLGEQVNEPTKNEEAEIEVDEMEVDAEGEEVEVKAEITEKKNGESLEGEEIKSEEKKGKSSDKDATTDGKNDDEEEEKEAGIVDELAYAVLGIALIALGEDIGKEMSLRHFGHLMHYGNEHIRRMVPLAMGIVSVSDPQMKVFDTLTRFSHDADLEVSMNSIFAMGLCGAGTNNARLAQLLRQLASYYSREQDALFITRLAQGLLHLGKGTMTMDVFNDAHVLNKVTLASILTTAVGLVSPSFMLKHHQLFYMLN

T3: Rpn1^391-642 (Saccharomyces cerevisiae, UniProt P38764 391-642)
T3 construct: Used unlabeled, and ^15N-enriched for the titration with Ubp6-UBL; source: E. coli, purified
T3 sequence (looked up): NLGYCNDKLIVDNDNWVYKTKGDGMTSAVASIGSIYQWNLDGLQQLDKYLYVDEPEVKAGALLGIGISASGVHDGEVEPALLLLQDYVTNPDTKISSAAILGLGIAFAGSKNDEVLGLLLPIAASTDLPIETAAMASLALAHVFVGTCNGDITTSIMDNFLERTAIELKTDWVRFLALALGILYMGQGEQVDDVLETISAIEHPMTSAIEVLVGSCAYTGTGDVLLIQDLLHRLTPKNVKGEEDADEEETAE

T4: full-length Rpn1 (Saccharomyces cerevisiae, UniProt P38764 1-993)
T4 construct: Rpn1, proteasomal subunit, Saccharomyces cerevisiae, UniProt P38764, full length; Unlabeled in the NMR experiments; also called Rpn1^FL; source: E. coli, purified
T4 sequence (looked up): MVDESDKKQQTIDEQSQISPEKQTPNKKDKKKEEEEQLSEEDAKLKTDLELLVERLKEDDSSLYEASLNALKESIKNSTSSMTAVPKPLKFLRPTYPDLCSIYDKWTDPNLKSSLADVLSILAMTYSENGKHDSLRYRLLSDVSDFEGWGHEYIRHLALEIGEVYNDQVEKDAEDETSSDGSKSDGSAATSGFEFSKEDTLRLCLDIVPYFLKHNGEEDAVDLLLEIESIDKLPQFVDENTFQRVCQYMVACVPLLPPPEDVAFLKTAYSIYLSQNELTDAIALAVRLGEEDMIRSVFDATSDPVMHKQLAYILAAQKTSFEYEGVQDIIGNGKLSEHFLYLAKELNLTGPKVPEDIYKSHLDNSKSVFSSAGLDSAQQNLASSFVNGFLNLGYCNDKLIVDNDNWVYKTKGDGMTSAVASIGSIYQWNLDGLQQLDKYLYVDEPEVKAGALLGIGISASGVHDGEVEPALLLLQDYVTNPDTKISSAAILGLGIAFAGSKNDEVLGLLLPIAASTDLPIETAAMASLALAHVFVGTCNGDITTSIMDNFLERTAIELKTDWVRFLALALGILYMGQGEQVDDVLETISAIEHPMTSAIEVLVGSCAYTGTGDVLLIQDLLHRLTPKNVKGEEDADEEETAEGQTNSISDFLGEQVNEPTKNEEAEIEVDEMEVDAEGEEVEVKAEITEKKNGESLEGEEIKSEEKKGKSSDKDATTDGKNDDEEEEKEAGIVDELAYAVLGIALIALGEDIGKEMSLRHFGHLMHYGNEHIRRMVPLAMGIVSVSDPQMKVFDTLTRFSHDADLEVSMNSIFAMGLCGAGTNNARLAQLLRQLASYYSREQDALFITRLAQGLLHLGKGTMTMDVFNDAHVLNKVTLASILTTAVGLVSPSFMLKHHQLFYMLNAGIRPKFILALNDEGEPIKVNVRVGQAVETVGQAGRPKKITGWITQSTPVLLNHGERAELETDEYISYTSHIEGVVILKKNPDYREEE


Legend:
[1] = target: T1, full-length Rpn1 (Saccharomyces …); assay: NMR titration; ^1H-^15N spectra of the ^15N-enriched protein or UBL domain with unlabeled Rpn1^FL (equimolar; excess for Ddi1); signal attenuation; 20 mM sodium phosphate, 150 mM NaCl, 1 mM TCEP, pH 6.8; 21-25 °C; both purified; settings: remark: other sources report otherwise
[2] = target: T2, Rpn1^356-905; assay: NMR titration; ^1H-^15N spectra of ^15N-UBL with unlabeled Rpn1^356-905; 50 mM Tris-Cl, 200 mM KCl, 5% glycerol, 5 mM β-mercaptoethanol, pH 7.4; 21-25 °C; both purified
[3] = target: T3, Rpn1^391-642; assay: NMR titration; ^1H-^15N spectra, CSPs and ^15N R2 of 150 μM ^15N-UBL or ^15N-^dK48-Ub2 with unlabeled Rpn1^391-642; 50 mM HEPES, 50 mM KCl, 1 mM TCEP, pH 7.6; 21-25 °C; both purified
[4] = target: T4, full-length Rpn1; assay: NMR titration; ^1H-^15N spectra of the ^15N-enriched protein or UBL domain with unlabeled Rpn1^FL (equimolar; excess for Ddi1); signal attenuation; 20 mM sodium phosphate, 150 mM NaCl, 1 mM TCEP, pH 6.8; 21-25 °C; both purified

binding [1]	binding [2]	binding [3]	binding [4]	Binder
no binding	–	–	–	full-length Ddi1, P40087 1-428 (protein) MDLTISNELTGEIYGPIEVSEDMALTDLIALLQADCGFDKTKHDLYYNMDILDSNRTQSLKELGLKTDDLLLIRGKISNSIQTDAATLSDEAFIEQFRQELLNNQMLRSQLILQIPGLNDLVNDPLLFRERLGPLILQRRYGGYNTAMNPFGIPQDEYTRLMANPDDPDNKKRIAELLDQQAIDEQLRNAIEYTPEMFTQVPMLYINIEINNYPVKAFVDTGAQTTIMSTRLAKKTGLSRMIDKRFIGEARGVGTGKIIGRIHQAQVKIETQYIPCSFTVLDTDIDVLIGLDMLKRHLACVDLKENVLRIAEVETSFLSEAEIPKSFQEGLPAPTSVTTSSDKPLTPTKTSSTLPPQPGAVPALAPRTGMGPTPTGRSTAGATTATGRTFPEQTIKQLMDLGFPRDAVVKALKQTNGNAEFAASLLFQ
–	no binding	no binding	no binding	Ddi1-UBL (domain or fragment, UniProt P40087 1-80) MDLTISNELTGEIYGPIEVSEDMALTDLIALLQADCGFDKTKHDLYYNMDILDSNRTQSLKELGLKTDDLLLIRGKISNS
